± gives the standard deviation. The list shows a part of the results, in another mix than the full data. Many of these values have a large error.
Tested on: MILI (PIWIL2) piRISC loaded with piRNA #1 (26 nt)
Assay: pre-steady-state target cleavage rate (min^-1); MIWI and MILI are mouse PIWI proteins and EfPiwi is from a freshwater sponge; tags in brackets are library labels; higher = faster piRNA-guided slicing of the target
Conditions: guide: piRNA #1 5'p-UGAGGUAGUAGGUUGUAUAGUAUCCA; auxiliary factor: 500 nM mouse GTSF1
Procedure, shortened: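 The pre-steady-state cleavage rate was derived from a burst-and-steady-state fit of Cleave-'n-Seq data. For these assays, 1 nM active affinity-purified piRISC loaded with a single synthetic guide was mixed with […] a transcribed, DNA-blocked target RNA library in HEPES–potassium acetate buffer at 33 °C, with or without 500 nM GTSF1 partner protein, for 0–8 or 0–960 min. Sequencing counts of uncleaved targets were normalised to depth and to weakly complementary targets, and k3 was capped at 0.0001 min^-1 after three trials were pooled.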
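Also: 1 nM active piRISC with 0.1 nM target library at 33 °C single turnover.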

Sequence | pre-steady-state target cleavage rate
GGAGAGGAUACUAUUCAACCUACUACCACA | 0.169 ± 0.017
GGAGAGGAUACUAUACAACCUACUACACUCA | 0.136 ± 0.019
GGAGACCUAUCUAUACAACCUCACUACCUCA | 0.00327 ± 0.0041
GGAGACCUAUGAAUACAACCUACAUGGAGA [g8:g18:cont:t1A] | 0.000198 ± 0.022
GGAGAGGAAACUAAACAACCUACUACCUCA | 0.229 ± 0.03
GGAGACGAUACUAUUCAACCUUCUACCUCA | 0.0105 ± 0.0025
GGAGACGAUACUAUACAUCCUACUAGCUCA | 0.173 ± 0.027
GGAGACCAUACUAUACAACCUUCUACGUCA | 0.00397 ± 0.0034
GGAGAGGAAACUAUACAACCAACUACCUCA | 0.00297 ± 0.0071
GGAGACCUAACUAUACAACCUACUACCUGCA | 0.149 ± 0.034
GGAGACCUAACAUAUACAACCUACUACCUCA | 0.026 ± 0.012
GGAGUGGAAACUAUUCAACCUACUACCUCA | 0.192 ± 0.017
GGAGAGGAUACAAUACAUCCUACUACCUCA | 0.239 ± 0.021
GGAGACCUAUGAUAUGUUGGUACUACCCUCA | 0.000128 ± 0.037
GGAGACCUAUGAAUUCAACCUACAACCUCA | 0.00204 ± 0.0029
GGAGAGGAUACUAUACAACCAACUACGUCA | 0.00609 ± 0.0018
GGAGACCUAUGAUUAGAACCAACUACCUCA | 0.000252 ± 0.013

Sequence | pre-steady-state target cleavage rate
GGAGACCUAACUAUACAACCUACCACCUCA | 0.0488 ± 0.014
GGAGACGAUACUAUUACAACCUACUACCUCA | 0.172 ± 0.011
GGAGACCUUACUAUACAACCAUGUACCUCA | 0.000992 ± 0.0083
GGAGACGAUACUAUACACACCUACUACCUCA | 0.00188 ± 0.006
GGAGACCUAUGAUAUGAACCGACUACCUCA | 0.000382 ± 0.007
GGAGACCAUACUACUACAACCUACUACCUCA | 0.137 ± 0.015
GGAGACCUAUGAUAUGUACCUACAUACCUCA | 0.000113 ± 0.022
GGAGACCUAUGAUAUGUACCUACUUGCUCA | < 0.0001
GGAGUGGAUACUAUACAACCUACCUACCUCA | 0.128 ± 0.0098
GGAGACCAAACUAUACAACCUACUACGUCA | 0.042 ± 0.015
GGAGACGAUACUAUACAACCUACUCCUCA | 0.0114 ± 0.0032
GGAGACGAUACUAGACAACCUACUACCUCA | 0.171 ± 0.013
GGAGACCUAUGAUAUGUACCAACUACCUCA | 0.000149 ± 0.017
GGAGACGAUACUAUACAAGCUACUACCACA | 0.311 ± 0.016
GGAGACCUAUGAUAUCUACCUACUUCCUCA | 0.000169 ± 0.019
GGAGUGGAUACGAUACAACCUACUACCUCA | 0.176 ± 0.011

Two entries picked at random from the list so far, as already listed:
Sequence | pre-steady-state target cleavage rate
GGAGACCUAUGAUAUGUACCUACAUACCUCA | 0.000113 ± 0.022
GGAGACGAUACUAUACAAGCUACUACCACA | 0.311 ± 0.016

Source: the supplement of paper PMC10338343
